In article PMC10682001:
Results are given in words; binding and its absence hold for the method and conditions named. Binding seen in cells or lysates may run through a third protein. These calls come from enrichment with a bait or labelling near it, and not all partners need be listed.

Chains of the proteins cited; added tags and fusions are not shown.
UniProt Q13283: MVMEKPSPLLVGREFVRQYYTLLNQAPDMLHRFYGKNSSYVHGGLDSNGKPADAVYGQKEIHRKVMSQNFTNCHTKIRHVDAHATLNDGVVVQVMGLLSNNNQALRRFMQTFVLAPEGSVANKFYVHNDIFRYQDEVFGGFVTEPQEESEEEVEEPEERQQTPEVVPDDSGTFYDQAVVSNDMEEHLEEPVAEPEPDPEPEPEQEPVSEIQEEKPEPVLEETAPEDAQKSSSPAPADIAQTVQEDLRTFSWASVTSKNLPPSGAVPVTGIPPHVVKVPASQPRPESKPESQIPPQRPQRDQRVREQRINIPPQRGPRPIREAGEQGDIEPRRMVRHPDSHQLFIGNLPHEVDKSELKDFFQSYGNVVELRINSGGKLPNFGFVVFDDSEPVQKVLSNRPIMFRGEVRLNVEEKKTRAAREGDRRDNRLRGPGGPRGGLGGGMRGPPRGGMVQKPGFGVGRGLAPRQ
UniProt Q13148: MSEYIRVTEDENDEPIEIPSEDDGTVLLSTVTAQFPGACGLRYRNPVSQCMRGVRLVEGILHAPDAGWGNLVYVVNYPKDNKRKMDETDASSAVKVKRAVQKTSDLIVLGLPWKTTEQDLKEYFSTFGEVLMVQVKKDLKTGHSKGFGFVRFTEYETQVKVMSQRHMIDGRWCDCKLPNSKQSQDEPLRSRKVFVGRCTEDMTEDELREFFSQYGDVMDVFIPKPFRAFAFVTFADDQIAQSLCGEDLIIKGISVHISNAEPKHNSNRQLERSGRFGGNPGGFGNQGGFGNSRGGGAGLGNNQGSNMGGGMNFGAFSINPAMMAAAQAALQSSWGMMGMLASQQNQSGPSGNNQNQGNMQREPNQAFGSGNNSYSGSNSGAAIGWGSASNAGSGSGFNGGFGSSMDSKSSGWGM
UniProt P35580: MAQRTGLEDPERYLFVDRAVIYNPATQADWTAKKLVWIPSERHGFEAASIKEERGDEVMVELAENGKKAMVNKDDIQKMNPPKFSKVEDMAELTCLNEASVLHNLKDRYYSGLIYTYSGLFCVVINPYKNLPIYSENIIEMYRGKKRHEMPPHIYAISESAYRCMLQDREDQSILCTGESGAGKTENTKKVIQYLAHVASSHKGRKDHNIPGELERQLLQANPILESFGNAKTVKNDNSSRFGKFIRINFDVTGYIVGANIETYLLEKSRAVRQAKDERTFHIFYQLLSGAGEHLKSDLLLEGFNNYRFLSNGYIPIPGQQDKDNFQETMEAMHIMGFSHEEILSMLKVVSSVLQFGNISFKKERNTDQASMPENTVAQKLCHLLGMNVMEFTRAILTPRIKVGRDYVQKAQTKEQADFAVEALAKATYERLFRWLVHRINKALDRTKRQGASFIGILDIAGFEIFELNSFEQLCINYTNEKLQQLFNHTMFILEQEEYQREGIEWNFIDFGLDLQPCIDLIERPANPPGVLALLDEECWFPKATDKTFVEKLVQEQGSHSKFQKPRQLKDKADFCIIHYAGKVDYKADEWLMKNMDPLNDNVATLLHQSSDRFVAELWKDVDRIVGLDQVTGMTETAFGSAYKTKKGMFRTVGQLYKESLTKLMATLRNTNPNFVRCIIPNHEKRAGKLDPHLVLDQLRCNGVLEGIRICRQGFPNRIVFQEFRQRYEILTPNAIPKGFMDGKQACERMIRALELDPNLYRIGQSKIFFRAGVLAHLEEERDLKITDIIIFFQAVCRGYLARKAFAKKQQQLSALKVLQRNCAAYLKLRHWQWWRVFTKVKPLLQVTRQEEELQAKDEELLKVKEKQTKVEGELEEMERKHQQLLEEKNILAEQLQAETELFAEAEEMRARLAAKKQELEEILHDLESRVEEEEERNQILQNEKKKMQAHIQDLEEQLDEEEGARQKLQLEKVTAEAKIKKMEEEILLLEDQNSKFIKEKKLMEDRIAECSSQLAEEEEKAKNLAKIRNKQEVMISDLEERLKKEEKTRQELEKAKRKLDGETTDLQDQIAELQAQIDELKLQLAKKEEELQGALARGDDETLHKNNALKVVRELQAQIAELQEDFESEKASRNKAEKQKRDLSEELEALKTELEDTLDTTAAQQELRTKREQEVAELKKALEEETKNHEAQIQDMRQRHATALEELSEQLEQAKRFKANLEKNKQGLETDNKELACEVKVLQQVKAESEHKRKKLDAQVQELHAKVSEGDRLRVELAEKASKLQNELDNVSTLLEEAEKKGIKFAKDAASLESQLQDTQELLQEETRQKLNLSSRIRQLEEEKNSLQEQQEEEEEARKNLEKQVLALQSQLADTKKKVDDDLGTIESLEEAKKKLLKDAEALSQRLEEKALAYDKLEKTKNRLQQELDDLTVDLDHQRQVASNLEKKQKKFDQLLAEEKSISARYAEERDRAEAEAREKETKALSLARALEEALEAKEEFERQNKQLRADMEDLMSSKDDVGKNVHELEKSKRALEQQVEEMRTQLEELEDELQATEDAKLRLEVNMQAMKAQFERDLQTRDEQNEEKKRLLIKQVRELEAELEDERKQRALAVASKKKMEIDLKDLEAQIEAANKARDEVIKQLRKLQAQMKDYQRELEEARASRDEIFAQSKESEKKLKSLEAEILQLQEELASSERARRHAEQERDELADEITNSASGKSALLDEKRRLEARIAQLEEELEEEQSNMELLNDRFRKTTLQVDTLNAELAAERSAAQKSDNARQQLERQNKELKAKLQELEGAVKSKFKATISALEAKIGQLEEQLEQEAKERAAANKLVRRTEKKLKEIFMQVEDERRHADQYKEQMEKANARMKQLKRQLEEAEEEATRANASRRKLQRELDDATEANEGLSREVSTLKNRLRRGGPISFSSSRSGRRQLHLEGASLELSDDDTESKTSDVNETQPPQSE
UniProt P35579: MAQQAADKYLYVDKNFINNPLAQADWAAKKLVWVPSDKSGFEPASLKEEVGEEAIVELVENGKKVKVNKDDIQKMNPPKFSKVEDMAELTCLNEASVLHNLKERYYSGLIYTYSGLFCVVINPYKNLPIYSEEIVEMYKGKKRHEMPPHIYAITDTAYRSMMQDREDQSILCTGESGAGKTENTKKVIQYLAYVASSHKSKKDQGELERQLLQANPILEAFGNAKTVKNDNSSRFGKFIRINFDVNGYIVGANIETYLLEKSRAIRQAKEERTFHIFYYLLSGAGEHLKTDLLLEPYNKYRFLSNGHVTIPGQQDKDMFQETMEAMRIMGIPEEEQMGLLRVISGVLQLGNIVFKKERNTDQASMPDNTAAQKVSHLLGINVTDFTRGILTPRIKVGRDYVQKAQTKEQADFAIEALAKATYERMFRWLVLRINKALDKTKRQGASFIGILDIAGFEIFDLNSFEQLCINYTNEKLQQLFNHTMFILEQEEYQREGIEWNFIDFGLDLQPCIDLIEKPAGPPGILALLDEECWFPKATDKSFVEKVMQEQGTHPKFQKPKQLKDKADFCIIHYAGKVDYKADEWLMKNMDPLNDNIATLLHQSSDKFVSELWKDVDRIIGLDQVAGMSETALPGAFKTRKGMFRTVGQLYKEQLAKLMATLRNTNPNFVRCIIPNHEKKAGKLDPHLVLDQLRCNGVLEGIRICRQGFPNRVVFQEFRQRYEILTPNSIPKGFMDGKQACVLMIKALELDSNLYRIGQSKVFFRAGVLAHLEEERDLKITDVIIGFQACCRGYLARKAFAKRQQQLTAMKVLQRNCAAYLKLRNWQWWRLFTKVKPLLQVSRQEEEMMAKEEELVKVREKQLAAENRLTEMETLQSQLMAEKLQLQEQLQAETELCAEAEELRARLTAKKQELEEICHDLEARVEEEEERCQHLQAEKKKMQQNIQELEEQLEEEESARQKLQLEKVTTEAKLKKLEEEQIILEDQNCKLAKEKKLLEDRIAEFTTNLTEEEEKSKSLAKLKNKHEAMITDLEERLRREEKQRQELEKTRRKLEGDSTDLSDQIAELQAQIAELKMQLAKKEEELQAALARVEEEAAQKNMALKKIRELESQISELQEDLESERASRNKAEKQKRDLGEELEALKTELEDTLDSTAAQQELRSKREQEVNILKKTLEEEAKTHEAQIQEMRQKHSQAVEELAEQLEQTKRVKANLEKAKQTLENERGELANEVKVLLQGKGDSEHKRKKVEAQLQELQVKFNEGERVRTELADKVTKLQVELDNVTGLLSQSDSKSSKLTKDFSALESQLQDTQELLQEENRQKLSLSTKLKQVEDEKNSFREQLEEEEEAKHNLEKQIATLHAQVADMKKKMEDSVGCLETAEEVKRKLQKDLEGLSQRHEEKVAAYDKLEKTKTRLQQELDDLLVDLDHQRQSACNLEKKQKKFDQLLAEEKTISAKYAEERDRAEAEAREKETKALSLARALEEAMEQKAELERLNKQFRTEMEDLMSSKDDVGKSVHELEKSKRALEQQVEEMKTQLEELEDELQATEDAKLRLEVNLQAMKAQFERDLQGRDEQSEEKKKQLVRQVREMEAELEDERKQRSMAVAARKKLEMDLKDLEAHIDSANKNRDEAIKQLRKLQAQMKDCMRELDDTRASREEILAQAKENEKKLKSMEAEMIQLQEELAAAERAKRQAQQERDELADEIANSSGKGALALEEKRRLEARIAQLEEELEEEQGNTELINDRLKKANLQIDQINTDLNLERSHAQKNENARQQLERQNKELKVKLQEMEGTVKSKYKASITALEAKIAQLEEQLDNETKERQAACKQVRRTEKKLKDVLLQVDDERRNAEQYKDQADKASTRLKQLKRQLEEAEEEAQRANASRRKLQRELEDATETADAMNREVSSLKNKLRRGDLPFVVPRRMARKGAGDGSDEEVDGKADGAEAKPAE
UniProt P60660: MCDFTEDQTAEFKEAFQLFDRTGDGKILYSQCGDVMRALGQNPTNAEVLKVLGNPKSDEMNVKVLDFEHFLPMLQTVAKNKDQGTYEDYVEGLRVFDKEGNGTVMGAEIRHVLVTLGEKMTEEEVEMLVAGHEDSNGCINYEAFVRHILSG
UniProt O14950: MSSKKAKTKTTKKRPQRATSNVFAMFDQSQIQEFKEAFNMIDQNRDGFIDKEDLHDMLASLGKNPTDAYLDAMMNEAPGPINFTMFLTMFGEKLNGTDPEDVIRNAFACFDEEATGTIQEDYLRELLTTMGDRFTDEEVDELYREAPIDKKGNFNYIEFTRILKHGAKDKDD
UniProt P09874: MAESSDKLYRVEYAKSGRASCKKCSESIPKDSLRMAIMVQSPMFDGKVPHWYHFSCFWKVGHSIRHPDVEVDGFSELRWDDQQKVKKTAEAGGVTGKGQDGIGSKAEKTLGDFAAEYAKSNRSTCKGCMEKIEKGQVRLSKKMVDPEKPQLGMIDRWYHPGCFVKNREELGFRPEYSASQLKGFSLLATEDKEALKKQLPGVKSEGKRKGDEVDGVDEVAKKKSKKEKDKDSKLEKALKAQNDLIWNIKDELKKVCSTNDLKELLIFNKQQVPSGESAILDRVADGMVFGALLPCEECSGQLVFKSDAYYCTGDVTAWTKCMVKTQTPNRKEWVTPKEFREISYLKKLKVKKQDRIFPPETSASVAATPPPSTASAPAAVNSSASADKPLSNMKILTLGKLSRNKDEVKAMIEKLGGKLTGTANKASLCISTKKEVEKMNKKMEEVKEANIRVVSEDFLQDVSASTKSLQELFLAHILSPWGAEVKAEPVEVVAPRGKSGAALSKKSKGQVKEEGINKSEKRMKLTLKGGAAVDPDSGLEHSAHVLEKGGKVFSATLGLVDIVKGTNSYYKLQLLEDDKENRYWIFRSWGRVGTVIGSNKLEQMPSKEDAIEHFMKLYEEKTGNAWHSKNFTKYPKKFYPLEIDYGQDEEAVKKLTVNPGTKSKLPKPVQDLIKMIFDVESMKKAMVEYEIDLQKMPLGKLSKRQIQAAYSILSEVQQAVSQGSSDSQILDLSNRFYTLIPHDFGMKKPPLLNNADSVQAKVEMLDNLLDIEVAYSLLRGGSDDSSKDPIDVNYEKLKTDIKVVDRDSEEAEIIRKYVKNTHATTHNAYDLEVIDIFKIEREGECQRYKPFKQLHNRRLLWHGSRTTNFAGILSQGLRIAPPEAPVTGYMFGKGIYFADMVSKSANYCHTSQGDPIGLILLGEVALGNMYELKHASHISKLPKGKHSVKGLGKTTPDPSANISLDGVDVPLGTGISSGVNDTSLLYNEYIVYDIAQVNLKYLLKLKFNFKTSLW

Tests used:
[1] = biological target: T1, CAPRIN1 (human (endogenous in U2OS)) (UniProt Q14444); test: affinity purification with mass spectrometry; SG fraction (S850, differential centrifugation) of wild-type U2OS cells over heat shock at 43 °C (0, 10, 20, 30, 60, 120, 180 min) and recovery at 37 °C (5, 10 min); G3BP1 or CAPRIN1 antibody cross-linked to protein A/G magnetic beads, 3 h at 4 °C; washes with SG Lysis Buffer, + 2 M urea, and 300 mM KOAc; TMT-labelled LC-MS/MS, three replicates; dynamic proteins had to change >1.2-fold in both datasets
T1 sequence: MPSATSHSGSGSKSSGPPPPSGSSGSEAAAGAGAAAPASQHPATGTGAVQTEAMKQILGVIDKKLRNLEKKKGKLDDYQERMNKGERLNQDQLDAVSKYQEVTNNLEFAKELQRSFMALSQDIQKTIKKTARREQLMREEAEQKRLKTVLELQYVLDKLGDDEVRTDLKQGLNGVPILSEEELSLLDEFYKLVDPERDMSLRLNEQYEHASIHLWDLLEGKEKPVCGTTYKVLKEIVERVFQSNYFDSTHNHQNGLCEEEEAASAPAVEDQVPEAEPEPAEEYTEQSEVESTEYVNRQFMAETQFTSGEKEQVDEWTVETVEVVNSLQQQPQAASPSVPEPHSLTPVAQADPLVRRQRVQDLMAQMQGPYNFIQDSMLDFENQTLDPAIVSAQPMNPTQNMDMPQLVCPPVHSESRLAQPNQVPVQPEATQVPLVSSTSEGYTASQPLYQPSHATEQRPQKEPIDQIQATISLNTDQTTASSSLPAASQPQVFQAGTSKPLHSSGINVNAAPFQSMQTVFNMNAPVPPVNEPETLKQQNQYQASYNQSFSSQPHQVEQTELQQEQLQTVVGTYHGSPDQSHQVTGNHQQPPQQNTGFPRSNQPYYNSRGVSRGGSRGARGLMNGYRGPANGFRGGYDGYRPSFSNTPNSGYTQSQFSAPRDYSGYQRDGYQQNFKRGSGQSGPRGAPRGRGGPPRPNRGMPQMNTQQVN

[2] = biological target: G3BP1 (human (endogenous in U2OS)) (UniProt Q13283); test: as above

**Q.** How did the binding [1] turn out when TDP-43 (from UniProt Q13148 1-414) was run?
**A.** The binding was “binds”.

**Q.** How did the binding [1] turn out when MYH10 (from UniProt P35580 1-1976) was run?
**A.** Its binding is “binds”.

**Q.** What about the binding [2] of the same substance?
**A.** The binding was “binds”.

**Q.** For MYH9 (from UniProt P35579 1-1960), which binding [1] is on record?
**A.** The binding was “binds”.

**Q.** What about the binding [2] of the same substance?
**A.** Its binding is “binds”.

**Q.** For MYL6 (from UniProt P60660 1-151), which binding [1] is on record?
**A.** The binding was “binds”.

**Q.** What about the binding [2] of the same substance?
**A.** Its binding is “binds”.

**Q.** Which results are given for VCP (from UniProt P55072 1-806)?
**A.** binding [1]: binds; binding [2]: binds

**Q.** What does the source list for MYL12B (from UniProt O14950 1-172)?
**A.** binding [1]: binds; binding [2]: binds

**Q.** Which results are given for “poly(ADP-ribose) polymerase 1 (from UniProt P09874 1-1014)”?
**A.** binding [1]: binds; binding [2]: binds
